From PubChem BioAssay AID1487 (National Center for Advancing Translational Sciences (NCATS), 2009)
Some of the results follow. These are further read-outs of the screen, such as a control signal, another cell line or another target. No call is given for them. Most of these compounds were active or inconclusive in the main read-out, so they are no random draw. Words in brackets tell the shape of the fitted curve; partial curves, single points and poor fits give uncertain potencies.

Test: qHTS Assay for Modulators of Lamin A Splicing
Conditions: HeLa LMNA splicing GFP/RFP minigene ratio, 48 h
Method in brief: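 S3 HeLa stable clones carrying a lamin A-EGFP splicing minigene plus DsRed2 were seeded at 600 cells/well in Opti-MEM with 2% FBS, pin-dosed and incubated 48 h at 37°C. Acumen cytometry (488 nm) gave the GFP/RFP total-intensity ratio.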

[1] = measured here: RFP viability control channel
[2] = measured here: GFP splicing reporter channel

SMILES	AC50 [1]	AC50 [2]
O=[N+]([O-])c1ccc(O)c(/C=N\N=C2c3ccccc3-c3ccccc32)c1	12.6 µM [rising, partial curve]	
CN1CC(c2ccccn2)C2(SC(=S)N(Cc3ccccc3)C2=O)C12C(=O)Nc1ccccc12 (configuration not stated)	12.6 µM [falling, partial curve, poor fit]	
Cc1ccc(C)c(NC(=O)c2nc(-c3ccccc3)n(-c3ccccc3)n2)c1		35.5 µM [rising, single point]
COc1cc(CNc2ccc3[nH]c(=O)[nH]c3c2)cc(Br)c1OCc1ccccc1F	0.0282 µM [falling, full curve, poor fit]	0.0501 µM [falling, full curve]
Cc1cc(NC(=O)CSc2nc3ccccc3c(=O)n2C(C)c2ccccc2)no1 (configuration not stated)	15.8 µM [rising, single point]	
NC(=O)CCCSc1nc2ccccc2[nH]1	0.112 µM [rising, single point]	
COc1ccc(/C=C/C(=O)c2ccncc2)c2ccccc12	28.2 µM [rising, partial curve]	35.5 µM [rising, single point]
CCNc1nc(-c2ccc(Cl)cc2)cs1	12.6 µM [rising, single point]	11.2 µM [rising, partial curve]
O=C(CSc1nc(-c2ccc(F)cc2)cc(C(F)(F)F)n1)NCc1cccs1	0.00316 µM [rising, full curve, poor fit]	
Cc1ccc(-c2csc3ncnc(-n4nnc5ccccc54)c23)cc1	10 µM [rising, partial curve, poor fit]	
COc1ccc(C(C(=O)NCc2ccccc2)N(Cc2ccco2)C(=O)c2cnccn2)cc1 (configuration not stated)		0.562 µM [falling, full curve, poor fit]
COc1cccc([C@@H]2Oc3ccc(OC)cc3C(=O)[C@H]2O)c1		35.5 µM [rising, single point]
CN(C)c1ccc(NC(=O)c2cccc(N3C(=O)CCC3=O)c2)cc1	2.24 µM [rising, partial curve]	1.12 µM [rising, single point]
Cc1c(Cl)cccc1-n1nc(C)c2c(C)cc(=O)n(CC(=O)N3CCCc4ccccc43)c21	20 µM [rising, single point]	
Cc1ccc(CNC(=O)CCCN2C(=O)CCn3nc(-c4cccn4C)cc32)cc1	7.08 µM [falling, full curve]	7.94 µM [falling, partial curve, poor fit]
CCOC(=O)c1sc2ccc(S(=O)(=O)N3CCOCC3)cc2c1N	20 µM [rising, single point]	12.6 µM [rising, single point]
O=C(NC(Cc1c[nH]c2ccccc12)C(=O)Nc1ccc(F)c([N+](=O)[O-])c1)c1cccs1 (configuration not stated)	1.12 µM [rising, full curve]	
COc1ccccc1N1CCN(C(=O)C2CCN(S(=O)(=O)c3ccc(F)cc3)CC2)CC1		0.1 µM [rising, partial curve, poor fit]
C/C(=N\NC(=S)NCc1ccccc1)c1ccc(C(C)(C)C)cc1	14.1 µM [rising, partial curve]	
CCCNC(=O)C1CCN(c2nc3ccc(C)cc3[nH]2)CC1		0.447 µM [rising, full curve, poor fit]
Cc1cnc(=O)[nH]c1SCC(=O)Nc1cc(C(F)(F)F)ccc1Cl	7.08 µM [falling, full curve, poor fit]	
Clc1ccc(C2=NN=C3COc4ccccc4N3C2)cc1	0.0891 µM [rising, full curve, poor fit]	0.141 µM [rising, full curve, poor fit]
N=c1ccn(Cc2ccc(Cl)c(Cl)c2)cc1	11.2 µM [rising, partial curve]	3.16 µM [rising, full curve]
CCOC(=O)c1ccc2c(c1)N(Cc1ccc(F)cc1Cl)C(=O)c1ccccc1S2	4.47 µM [rising, partial curve, poor fit]	
COc1ccc(OC)c(C(=O)CN2C(=O)N(c3ccc(C)cc3)S(=O)(=O)c3ccccc32)c1		11.2 µM [falling, partial curve, poor fit]
O=C(CNC(=O)C12CC3CC(CC(C3)C1)C2)OCc1cc(=O)n2cc(Br)ccc2n1	0.0282 µM [falling, full curve, poor fit]	
COc1ccccc1-c1nccc(NCc2cccc(C)c2)n1		6.31 µM [falling, full curve]
CC(C)Oc1cccc(C(=O)C2CCCN(Cc3cccn3-c3ccccn3)C2)c1 (configuration not stated)	6.31 µM [rising, single point]	0.0112 µM [rising, full curve, poor fit]

SMILES	AC50 [1]	AC50 [2]
Cc1no[n+]([O-])c1COc1ccc(/C=N/n2nnnc2N)cc1		35.5 µM [rising, single point]
CCC(C)NC(=O)c1ccccc1NC(=O)COc1ccc(OC)cc1 (configuration not stated)		35.5 µM [falling, single point]
Cc1ccc(S(=O)(=O)N(Cc2ccc(Cl)cc2)c2ccccc2C(=O)NCc2ccco2)cc1	12.6 µM [falling, single point]	11.2 µM [falling, partial curve]
CCOc1ccc(CC2c3cc(OCC)c(OCC)cc3CCN2C(=O)CN2CCN(C)CC2)cc1OCC (configuration not stated)	6.31 µM [rising, single point]	
COc1cccc(/C=C/C(=O)c2ccc[nH]2)c1	14.1 µM [rising, single point]	1.12 µM [falling, partial curve]
Cc1ccccc1NC(=O)CCn1nc(-c2ccccc2)c2ccccc2c1=O	0.0355 µM [falling, full curve, poor fit]	
COc1ccccc1N1CCN(c2csc3ccccc3c2=O)CC1		8.91 µM [falling, partial curve, poor fit]
Cc1ccccc1OCCn1cc(/C(N)=N/O)c2ccccc21	31.6 µM [rising, single point]	20 µM [rising, single point]
O=C(N/N=C/c1ccc(Br)cc1)c1ccccc1-n1cccc1	35.5 µM [falling, single point]	35.5 µM [falling, single point]
COc1ccc(C(=O)Sc2ccc(Cl)cc2)cc1OC	11.2 µM [falling, partial curve]	
O=C(c1ccc2nc(-c3ccco3)c(-c3ccco3)nc2c1)N1CCN(c2ccccc2)CC1	17.8 µM [rising, single point]	14.1 µM [rising, single point]
CN1CCN(C2=Nc3ccccc3Sc3ccc(Cl)cc32)CC1	0.02 µM [falling, full curve]	2 µM [falling, partial curve, poor fit]
COc1ccccc1CNc1ccnc(-c2cccnc2)n1		11.2 µM [falling, partial curve, poor fit]
Cc1ccc(NCCC(=O)c2ccc(Cl)cc2)cc1		22.4 µM [falling, single point]
Cc1ccc(C(=O)Nc2sc3c(c2C(=O)O)CCCCC3)o1	11.2 µM [rising, partial curve]	5.62 µM [rising, partial curve]
CCCCOc1ccc(N=Cc2cccs2)cc1	2.51 µM [rising, partial curve, poor fit]	
CCOc1cccc(-n2nnnc2-c2ccc(OC)cc2)c1	5.01 µM [rising, partial curve]	
COCCn1c(SCC(=O)N2CCCc3ccccc32)nc2ccccc2c1=O	11.2 µM [rising, partial curve, poor fit]	12.6 µM [rising, single point]
O=C(NNc1nc(-c2ccccc2)c2cc(Br)ccc2n1)c1ccc(S(=O)(=O)N2CCCCC2)cc1	25.1 µM [rising, single point]	35.5 µM [rising, single point]
Cc1ccccc1CS(=O)(=O)c1cnc2ccccc2n1		35.5 µM [falling, single point]
Cc1cccc(N2CCN(C(=O)c3csc4ccccc34)CC2C)c1 (configuration not stated)		35.5 µM [falling, single point]
Cc1cccc(C2=NN(c3ccc(Br)cc3)[C@@H](C(=O)N3CCOC3=O)[C@@H]2c2ccc(F)cc2)c1	12.6 µM [rising, partial curve]	
CN(Cc1ccco1)c1ncnc2ccc(-c3cccnc3)cc12	15.8 µM [rising, single point]	14.1 µM [rising, partial curve]
CCCCNC(=O)C1CCN(c2nc3ccc(C)cc3[nH]2)CC1		0.316 µM [rising, partial curve, poor fit]
Cc1cccc(COCC(Cc2ccccc2)N2CCN(C(=O)c3cc(Cl)cc(Cl)c3)CCC2=O)c1 (configuration not stated)	35.5 µM [rising, single point]	35.5 µM [rising, single point]
NC(=O)c1cccnc1Nc1cccc(F)c1	11.2 µM [rising, partial curve, poor fit]	12.6 µM [rising, single point]
COc1ccc(-n2c(NC(=O)c3ccc(Br)o3)c(C#N)c3nc4ccccc4nc32)cc1	17.8 µM [rising, partial curve, poor fit]	10 µM [rising, partial curve, poor fit]
